# Laboratory results published in paper PMC8060413.
# By UniProt entry, the sequences of proteins in these tests, tags left out. Where a name states a change or a piece, a line headed by the entry shows the natural chain unless it says otherwise.
# UniProt P32527: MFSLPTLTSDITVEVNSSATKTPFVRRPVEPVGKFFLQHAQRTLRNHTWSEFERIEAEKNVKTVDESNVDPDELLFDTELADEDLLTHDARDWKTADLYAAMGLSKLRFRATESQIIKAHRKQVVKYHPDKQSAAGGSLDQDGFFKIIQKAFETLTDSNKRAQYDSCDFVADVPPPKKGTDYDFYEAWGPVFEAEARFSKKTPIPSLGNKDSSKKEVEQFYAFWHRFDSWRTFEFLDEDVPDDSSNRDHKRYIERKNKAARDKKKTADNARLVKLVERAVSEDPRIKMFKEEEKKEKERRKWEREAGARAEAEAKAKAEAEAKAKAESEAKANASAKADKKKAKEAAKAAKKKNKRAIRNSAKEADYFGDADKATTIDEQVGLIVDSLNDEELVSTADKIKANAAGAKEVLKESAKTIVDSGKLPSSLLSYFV
# Target: T1, Ssz1 C81S C86S (subunit of the cysteine RAC variants) (yeast) (UniProt P38788)
# T1 sequence: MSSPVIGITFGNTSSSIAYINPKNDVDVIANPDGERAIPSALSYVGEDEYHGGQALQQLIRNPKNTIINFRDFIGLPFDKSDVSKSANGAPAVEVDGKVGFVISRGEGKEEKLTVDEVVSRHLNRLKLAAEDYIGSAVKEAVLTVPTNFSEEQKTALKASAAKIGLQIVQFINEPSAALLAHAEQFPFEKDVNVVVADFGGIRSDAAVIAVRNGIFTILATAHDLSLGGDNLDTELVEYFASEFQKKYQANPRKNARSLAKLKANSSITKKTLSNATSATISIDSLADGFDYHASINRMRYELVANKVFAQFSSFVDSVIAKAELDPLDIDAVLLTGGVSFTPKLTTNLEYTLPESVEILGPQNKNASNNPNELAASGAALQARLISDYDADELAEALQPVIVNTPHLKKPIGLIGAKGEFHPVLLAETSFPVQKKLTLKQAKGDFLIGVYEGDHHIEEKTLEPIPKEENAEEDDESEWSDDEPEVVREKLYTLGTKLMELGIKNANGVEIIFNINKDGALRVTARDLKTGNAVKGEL
# Assay: co-purification (Ni-IDA affinity, anion exchange, size exclusion); Ssz1 and Zuo1 co-expressed in E. coli; complex held on Ni-IDA by His6-SUMO on Ssz1, washed with 100 mM and 1 M KAc, eluted with 300 mM imidazole; His6-SUMO removed by Ulp1; then ResourceQ and HiLoad Superdex 200 in 40 mM HEPES pH 7.4, 100 mM KAc, 5 mM MgCl2, 5% glycerol
row,binding,Substance
1,binds,Zuo1 C167S K351C K355P R395P (from UniProt P32527)
2,binds,Zuo1 C167S K351C K355P R395P K363C (from UniProt P32527)
3,binds,Zuo1 C167S K355P R395P K363C (from UniProt P32527)

# These are yes or no findings as the source states them, for the method shown. Binding seen in cells or lysates may run through a third protein. Binding can be weak; no strength is given.
